Test results reported in the supplement of paper PMC10849652.
The other results are listed elsewhere or left out.

Chains of the proteins cited; added tags and fusions are not shown. Lines headed by an entry give the natural chain unless they say otherwise; changes in a name come on top.
UniProt P28702: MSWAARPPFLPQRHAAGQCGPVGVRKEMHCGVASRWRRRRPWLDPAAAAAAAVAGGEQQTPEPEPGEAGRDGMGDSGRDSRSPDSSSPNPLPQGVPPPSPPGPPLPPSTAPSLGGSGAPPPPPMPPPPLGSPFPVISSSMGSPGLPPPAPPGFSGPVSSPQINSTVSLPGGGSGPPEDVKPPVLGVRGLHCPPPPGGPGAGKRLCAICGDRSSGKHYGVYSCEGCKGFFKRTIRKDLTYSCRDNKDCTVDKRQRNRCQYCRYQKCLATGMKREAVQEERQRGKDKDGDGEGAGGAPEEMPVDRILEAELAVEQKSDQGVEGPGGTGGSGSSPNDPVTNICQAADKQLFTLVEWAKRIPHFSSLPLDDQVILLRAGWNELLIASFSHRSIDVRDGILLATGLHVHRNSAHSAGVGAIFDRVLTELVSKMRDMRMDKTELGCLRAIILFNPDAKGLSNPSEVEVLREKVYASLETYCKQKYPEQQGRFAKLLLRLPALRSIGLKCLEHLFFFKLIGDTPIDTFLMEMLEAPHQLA
UniProt P51812, whole entry, looked up: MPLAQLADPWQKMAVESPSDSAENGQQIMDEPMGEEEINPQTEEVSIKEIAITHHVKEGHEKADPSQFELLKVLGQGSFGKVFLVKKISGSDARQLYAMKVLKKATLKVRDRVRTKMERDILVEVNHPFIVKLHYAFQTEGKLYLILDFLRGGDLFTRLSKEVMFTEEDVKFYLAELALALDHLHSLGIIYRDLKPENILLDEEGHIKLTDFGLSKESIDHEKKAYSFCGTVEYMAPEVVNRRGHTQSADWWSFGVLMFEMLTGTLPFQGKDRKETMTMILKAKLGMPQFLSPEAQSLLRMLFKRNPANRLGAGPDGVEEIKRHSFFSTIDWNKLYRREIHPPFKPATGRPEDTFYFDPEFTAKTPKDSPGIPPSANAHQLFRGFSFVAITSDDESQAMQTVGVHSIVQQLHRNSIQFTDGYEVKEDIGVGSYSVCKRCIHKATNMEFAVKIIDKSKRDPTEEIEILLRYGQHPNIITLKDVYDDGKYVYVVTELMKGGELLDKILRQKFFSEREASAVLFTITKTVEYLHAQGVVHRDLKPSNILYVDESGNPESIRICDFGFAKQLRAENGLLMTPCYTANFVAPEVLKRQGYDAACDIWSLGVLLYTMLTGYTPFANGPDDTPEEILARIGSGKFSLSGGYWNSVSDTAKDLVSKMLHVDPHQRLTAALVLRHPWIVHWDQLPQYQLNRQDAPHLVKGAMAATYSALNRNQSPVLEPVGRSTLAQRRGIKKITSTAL
UniProt P57060: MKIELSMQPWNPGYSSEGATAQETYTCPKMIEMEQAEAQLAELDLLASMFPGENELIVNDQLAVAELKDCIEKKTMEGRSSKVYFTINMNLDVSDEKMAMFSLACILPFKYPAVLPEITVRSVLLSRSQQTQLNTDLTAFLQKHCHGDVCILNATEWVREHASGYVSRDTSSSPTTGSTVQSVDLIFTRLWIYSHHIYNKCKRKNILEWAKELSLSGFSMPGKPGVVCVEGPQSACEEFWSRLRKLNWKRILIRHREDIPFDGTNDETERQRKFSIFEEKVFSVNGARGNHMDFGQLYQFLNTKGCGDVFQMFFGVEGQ
UniProt Q96FQ6: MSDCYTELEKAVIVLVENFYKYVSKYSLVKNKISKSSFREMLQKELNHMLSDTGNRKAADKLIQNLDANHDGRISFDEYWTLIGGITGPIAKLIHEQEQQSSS
UniProt Q96C34: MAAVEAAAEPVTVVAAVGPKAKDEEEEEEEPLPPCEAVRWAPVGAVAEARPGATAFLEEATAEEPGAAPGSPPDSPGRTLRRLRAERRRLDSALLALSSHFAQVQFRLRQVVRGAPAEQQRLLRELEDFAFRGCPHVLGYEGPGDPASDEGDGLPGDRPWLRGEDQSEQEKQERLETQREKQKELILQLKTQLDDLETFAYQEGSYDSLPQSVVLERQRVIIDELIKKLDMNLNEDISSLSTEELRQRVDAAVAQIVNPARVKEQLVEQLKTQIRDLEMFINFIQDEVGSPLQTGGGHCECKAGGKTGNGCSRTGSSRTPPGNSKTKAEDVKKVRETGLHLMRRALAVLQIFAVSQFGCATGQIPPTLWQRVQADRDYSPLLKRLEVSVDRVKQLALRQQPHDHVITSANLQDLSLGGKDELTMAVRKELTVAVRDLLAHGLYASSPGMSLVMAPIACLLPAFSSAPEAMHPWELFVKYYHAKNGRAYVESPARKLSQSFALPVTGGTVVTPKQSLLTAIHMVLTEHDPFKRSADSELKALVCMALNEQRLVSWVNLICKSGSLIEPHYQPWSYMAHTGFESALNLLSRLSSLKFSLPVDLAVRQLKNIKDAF
UniProt P60903, whole entry, looked up: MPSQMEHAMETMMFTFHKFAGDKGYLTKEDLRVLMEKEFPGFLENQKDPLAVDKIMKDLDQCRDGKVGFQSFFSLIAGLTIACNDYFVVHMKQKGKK
UniProt Q8WXA3: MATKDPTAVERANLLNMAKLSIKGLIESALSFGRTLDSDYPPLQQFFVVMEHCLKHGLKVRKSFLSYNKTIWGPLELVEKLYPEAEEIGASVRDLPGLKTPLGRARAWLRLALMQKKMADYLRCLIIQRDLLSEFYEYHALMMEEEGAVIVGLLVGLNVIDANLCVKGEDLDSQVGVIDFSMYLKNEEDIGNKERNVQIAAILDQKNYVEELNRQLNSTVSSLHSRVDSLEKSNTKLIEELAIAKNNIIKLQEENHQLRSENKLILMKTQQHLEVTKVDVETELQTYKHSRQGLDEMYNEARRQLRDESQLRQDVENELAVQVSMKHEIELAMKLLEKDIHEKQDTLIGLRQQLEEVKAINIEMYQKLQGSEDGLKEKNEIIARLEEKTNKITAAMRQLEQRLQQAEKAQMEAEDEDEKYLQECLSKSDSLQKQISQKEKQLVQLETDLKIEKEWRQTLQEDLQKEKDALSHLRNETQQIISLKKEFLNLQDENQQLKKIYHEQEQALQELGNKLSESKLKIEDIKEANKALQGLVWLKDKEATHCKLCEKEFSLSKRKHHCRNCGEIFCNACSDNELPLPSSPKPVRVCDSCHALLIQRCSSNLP
UniProt Q9NYV6: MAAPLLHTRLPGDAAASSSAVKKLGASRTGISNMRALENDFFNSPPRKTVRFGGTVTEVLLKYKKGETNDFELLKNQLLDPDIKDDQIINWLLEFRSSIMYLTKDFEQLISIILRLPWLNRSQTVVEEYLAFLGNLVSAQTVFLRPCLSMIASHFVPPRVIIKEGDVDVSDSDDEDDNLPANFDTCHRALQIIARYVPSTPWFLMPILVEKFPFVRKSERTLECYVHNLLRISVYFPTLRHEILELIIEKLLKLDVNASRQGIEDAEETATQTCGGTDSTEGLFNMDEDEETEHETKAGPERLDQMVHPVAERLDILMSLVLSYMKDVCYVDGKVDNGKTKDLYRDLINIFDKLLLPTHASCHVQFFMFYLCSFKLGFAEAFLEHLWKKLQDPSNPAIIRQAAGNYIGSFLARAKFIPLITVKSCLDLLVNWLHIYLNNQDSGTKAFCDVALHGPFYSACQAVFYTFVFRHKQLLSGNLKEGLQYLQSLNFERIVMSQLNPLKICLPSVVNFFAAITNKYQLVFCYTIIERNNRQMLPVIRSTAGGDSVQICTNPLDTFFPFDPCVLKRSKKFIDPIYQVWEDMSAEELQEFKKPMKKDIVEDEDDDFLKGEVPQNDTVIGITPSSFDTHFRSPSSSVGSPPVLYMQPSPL
UniProt Q92681: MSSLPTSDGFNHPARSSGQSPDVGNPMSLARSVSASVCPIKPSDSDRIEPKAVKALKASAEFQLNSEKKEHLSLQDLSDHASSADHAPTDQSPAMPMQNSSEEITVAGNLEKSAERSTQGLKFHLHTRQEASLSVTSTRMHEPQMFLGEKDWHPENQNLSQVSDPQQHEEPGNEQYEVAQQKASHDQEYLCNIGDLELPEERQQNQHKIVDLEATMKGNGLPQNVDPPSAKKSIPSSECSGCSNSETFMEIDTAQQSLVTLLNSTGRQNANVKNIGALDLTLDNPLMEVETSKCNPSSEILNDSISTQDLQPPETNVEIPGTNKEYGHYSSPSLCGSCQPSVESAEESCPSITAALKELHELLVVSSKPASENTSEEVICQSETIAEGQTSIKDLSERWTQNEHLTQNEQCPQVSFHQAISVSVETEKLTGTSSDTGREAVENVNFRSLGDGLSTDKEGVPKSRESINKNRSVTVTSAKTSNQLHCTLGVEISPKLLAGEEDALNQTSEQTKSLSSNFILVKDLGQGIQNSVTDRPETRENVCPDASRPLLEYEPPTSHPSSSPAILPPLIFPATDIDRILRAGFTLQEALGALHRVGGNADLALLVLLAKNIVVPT
UniProt Q9P2E9: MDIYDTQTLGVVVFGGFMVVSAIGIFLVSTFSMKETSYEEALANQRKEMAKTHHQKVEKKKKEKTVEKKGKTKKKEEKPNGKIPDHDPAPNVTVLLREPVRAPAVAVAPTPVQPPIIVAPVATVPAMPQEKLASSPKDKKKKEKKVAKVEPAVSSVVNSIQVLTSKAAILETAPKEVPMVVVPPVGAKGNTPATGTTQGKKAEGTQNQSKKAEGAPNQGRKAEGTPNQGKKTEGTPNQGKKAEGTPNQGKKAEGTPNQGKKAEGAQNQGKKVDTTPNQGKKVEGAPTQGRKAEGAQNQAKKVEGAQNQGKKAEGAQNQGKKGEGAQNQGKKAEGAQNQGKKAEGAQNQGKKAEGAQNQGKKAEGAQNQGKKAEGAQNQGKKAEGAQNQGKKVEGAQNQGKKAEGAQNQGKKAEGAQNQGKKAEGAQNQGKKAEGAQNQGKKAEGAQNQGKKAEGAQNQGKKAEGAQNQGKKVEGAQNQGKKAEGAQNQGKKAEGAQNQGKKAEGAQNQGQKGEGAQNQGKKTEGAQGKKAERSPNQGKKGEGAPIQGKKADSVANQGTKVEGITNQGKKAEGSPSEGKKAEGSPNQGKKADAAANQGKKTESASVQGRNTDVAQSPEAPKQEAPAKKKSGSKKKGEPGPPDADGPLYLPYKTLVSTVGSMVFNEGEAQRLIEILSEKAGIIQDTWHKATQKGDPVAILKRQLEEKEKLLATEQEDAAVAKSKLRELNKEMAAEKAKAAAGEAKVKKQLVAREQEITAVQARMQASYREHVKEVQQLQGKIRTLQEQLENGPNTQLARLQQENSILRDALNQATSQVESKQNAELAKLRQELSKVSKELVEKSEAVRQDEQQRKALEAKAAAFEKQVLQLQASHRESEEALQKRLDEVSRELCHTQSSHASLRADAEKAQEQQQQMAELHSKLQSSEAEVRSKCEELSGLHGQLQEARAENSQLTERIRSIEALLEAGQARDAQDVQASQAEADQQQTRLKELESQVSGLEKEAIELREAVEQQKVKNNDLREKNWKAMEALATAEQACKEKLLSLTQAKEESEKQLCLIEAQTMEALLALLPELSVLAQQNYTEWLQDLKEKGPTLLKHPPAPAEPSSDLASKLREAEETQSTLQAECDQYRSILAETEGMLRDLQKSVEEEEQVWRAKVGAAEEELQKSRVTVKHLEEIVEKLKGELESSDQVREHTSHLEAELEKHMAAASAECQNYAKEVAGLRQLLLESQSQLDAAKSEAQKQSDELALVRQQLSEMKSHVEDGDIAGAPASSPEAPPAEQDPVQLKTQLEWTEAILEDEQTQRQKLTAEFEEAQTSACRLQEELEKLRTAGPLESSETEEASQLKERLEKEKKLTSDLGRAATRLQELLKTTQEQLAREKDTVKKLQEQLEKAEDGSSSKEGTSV
UniProt Q9UBS0: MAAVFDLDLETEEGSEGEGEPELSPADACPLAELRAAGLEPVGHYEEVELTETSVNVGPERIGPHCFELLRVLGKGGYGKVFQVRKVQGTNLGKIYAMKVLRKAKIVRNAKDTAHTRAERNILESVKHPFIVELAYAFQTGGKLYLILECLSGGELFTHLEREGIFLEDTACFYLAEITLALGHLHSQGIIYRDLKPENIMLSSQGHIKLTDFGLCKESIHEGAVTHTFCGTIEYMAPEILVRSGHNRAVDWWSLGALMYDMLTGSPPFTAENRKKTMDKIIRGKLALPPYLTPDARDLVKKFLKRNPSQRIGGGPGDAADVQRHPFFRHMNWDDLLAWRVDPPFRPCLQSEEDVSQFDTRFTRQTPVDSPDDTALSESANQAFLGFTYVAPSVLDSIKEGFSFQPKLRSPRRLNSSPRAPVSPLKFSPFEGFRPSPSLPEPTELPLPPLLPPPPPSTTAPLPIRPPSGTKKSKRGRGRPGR
UniProt Q6P087: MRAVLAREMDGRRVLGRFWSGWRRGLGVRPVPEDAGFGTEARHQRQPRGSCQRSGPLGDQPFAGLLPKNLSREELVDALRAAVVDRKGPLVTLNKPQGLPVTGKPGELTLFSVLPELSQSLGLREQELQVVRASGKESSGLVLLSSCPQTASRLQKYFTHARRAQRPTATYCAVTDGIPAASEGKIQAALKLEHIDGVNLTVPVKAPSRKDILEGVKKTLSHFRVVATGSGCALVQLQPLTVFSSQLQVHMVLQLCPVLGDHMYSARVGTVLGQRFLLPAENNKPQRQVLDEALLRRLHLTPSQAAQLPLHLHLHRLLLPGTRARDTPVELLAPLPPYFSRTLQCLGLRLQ

Compound: Cc1ccc(NC(=O)c2ccc(CN3CC[C@H](N(C)C)C3)c(C(F)(F)F)c2)cc1Nc1nccc(-c2cncnc2)n1 [bafetinib]
Experiment: log2 fold change, soluble protein after heating vs DMSO (PISA); higher = thermal stabilisation; K562 lysate, 10 uM; active = over 0.2 and 3.5 SD of the protein, either way, in both replicates (recomputed)
Summary of the method: (§1)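 Soluble protein was defined as the supernatant remaining after 21,000xg for 90 min, following pooling of heated aliquots and adjustment to 0.5% NP-40 at 4°C. Before that, crude K562 extract at 1 mg/mL protein in PBS pH 7.4 with 1 mM MgCl2 was treated with 10 μM compound for 30 min and heated for 3 min across 48°C-58°C. Quantification used TMTpro 16plex LC-MS/MS with channel sums equalised, and values are log-two fold changes in thermal stability relative to solvent controls from duplicates.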

log2 fold change, inactive:
RPS7, A0A2R8Y623 0.409
RXRB isoform 3 (UniProt P28702) -0.11
S100A14 (UniProt Q9HCY8) -0.123
RPS6KA3 (UniProt P51812) -0.077
RWDD2B (UniProt P57060) 0.089
S100A16 (UniProt Q96FQ6) 0.069
RUNDC1 (UniProt Q96C34) 0.264
S100A10 (UniProt P60903) -0.102
RUFY2 isoform 1 (UniProt Q8WXA3) 0.177
RRN3 (UniProt Q9NYV6) 0.058
RSC1A1 (UniProt Q92681) -0.11
RRBP1 isoform 3 (UniProt Q9P2E9) -0.191

Compound: Cc1cccc(CC(=O)N2CCc3c2ccc(-c2cn(C)c4ncnc(N)c24)c3F)n1
Experiment: as above
Summary of the method: as §1

log2 fold change, inactive:
RTN4, A0A0U1RQR6 0.519
RPSA (UniProt F8WD59) -0.057
RXRB isoform 3 (UniProt P28702) 0.023
RWDD3 (UniProt Q9Y3V2) -0.322
RPUSD1 (UniProt Q9UJJ7) 0.121
RPS6KB2 (UniProt Q9UBS0) -0.011
RPS6KA3 (UniProt P51812) -0.083
RPUSD3 (UniProt Q6P087) -0.022
S100A16 (UniProt Q96FQ6) -0.162
RUNDC1 (UniProt Q96C34) 0.211
RUFY2 isoform 1 (UniProt Q8WXA3) -0.099
RRN3 (UniProt Q9NYV6) -0.111
